Results on one molecule are retold here after paper doi:10.1101/2022.02.15.480428.

The assay has as its target T1, APE-1 endogenously tagged with 3xFLAG:GFP (C. elegans) (UniProt Q9XVN3).
T1 sequence: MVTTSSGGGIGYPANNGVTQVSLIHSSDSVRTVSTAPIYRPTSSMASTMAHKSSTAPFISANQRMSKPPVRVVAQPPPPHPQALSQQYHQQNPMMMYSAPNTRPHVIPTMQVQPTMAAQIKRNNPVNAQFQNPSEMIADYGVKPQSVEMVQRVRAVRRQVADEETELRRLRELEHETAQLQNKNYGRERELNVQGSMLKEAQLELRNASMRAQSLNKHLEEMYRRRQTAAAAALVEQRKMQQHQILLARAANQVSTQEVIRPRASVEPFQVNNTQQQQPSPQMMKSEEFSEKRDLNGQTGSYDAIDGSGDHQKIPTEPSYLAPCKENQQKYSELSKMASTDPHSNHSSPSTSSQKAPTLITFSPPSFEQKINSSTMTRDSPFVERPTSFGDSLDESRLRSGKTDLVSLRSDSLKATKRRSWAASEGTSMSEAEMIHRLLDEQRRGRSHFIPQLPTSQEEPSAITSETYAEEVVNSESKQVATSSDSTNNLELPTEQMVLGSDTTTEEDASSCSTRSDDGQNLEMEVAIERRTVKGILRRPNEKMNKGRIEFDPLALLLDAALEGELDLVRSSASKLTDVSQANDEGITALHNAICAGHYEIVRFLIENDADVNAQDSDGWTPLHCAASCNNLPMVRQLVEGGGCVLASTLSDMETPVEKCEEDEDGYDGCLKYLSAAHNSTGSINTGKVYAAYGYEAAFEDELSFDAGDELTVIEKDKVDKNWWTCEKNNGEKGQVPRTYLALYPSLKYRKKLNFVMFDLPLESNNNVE
The assay is described as follows: affinity purification with mass spectrometry.

Results are given in words; binding and its absence hold for the method and conditions named. Binding seen in cells or lysates may run through a third protein. A yes stands for co-enrichment or nearness to the bait. Other partners may have been found. A no says only that the protein was not detected with the bait. Sequences can lack the tags named with a protein.

B1: PAR-3 (protein, UniProt Q17353 1-1379)
chain: MSASSTSSSSTSCPEGGEPSGSCKSSDEGESTLKKRMQQYGIASGYANSSISTLDRSQYQSLPLNGTRRVTVQFGRMKIVVPWKESDQTVGQLADAALLRYKKARGMANEDRIHVHRLECASDGGILDMDDVLEEVFDLNYDQILAITDEANGGSTTPTYSQIQKQQHHYAQPLPYARKFDGGPSTPIASAFGSVTVNHQAHRAASPYNVGFARSNSRDFAPQPTHSKERRDSVVEVSSFDQIPQSGLRVSTPKPSRQSEDVIDGKPMNQPILRSSLRTEASGSRTEEATPVKQSRVTLSPEVEKKLAEQDERKSERRKHYDKNPGRFARGSDRKSRITDALLDARDRIADQLESQNPAEETKSQMIRVKIDQGPMPGTSLVTFPPIPEKSENEKQLGIEVNAVFDESSELPGTSEPTKLSSVQIMKIEDGGRIAKDGRIRVGDCIVAIDGKPVDQMSIIRVRASISDLAAVTSRPVTLIINRSLESFLEQESSAKPIQSALQQANTQYIGHTTVVELIKSSNGFGFTVTGRETAKGERLFYIGTVKPYGVALGHLKSGDRLLEINGTPTGQWTQSEIVEKLKETMVGEKIKFLVSRVSQSAIMSTSASSENKENEETLKVVEEEKIPQKLPLPALMTPPVPKDTPALSPSGASRFEIVIPFINGSSSAGLGVSLKARVSKKSNGSKVDCGIFIKNVMHGGAAFKEGGLRVDDRIVGVEDIDLEPLDNREAQAALAKKLKEVGMISSNVRLTISRYNECNPGQISRDLSRITVDASSPSPSSRMSSHTAPDSLLPSPATRGTSSSGADSSHSRQSSASSAVPAVPARLTERDSIVSDGTSRNDESELPDSADPFNREGLGRKSLSEKRGMGAAADPQHIKLFQDIKHQRQNSAPTSSTQKRSKSQPRSSSQRNYRSPMKLVDLPTTAAASASTNSQNLDDSDMLNRRSQSMESINRPVESILRGTGQIPTGSSSKVQFMQAASPDQHPFPPGAALLRLKNEESRSRDKSRRKSMGNPFSAMRNFFGFGSKSRDASPEKTPTESVQLRSVERPKSIIDERNNGSSERAPPPLPPHQSQRRGSGGNVFVDYGEPYGLIPQYPHNTTSGYESYADSELYDRYAAHRYHPRGGPIIDEDEYIYRQQSTSGNSPINTSSYVNYGLPASNAYHVGSRIPPQTSSGSISKTSGAMRRVYPAEYDEDVAYHQQIPQQSTRYQQGSGSGRGNADYHHMFNSWFAYTGGGAVGAAPVIKSSYGSSPVRIAAASAIERGESFVVEPVSGSSASATDRRGRSTSSGAVASGSSSTGFQYAAKEKYADARSGKFNGGSTRLFIPRHGGGLSAAAFATNFGGEAYETRGGGAGGSPSQYRRRDQGPPHRFPQY
Take B1: the binding entry is on record as “no binding”.
